Literature values in patent publication US20090060928A1, “Topical Toll Like Receptor Ligands as Vaccine Adjuvants” (priority 2006, published 2009).
For at least one compound, name, drawing or mass did not settle the structure.

System: HIV DNA vaccine
Settings: intramuscular, in combination with HIV DNA vaccine; cited from earlier work

CCOCc1nc2c(N)nc3ccccc3c2n1CC(C)(C)O [resiquimod]
enhancement of Th-1 antibody responses: five-fold
enhancement of antigen-specific T-cell proliferative responses: seven-fold
